Drawing on patent publication US20040248129A1, “Rhesus monkey, dog and feeret melanin-concentrating hormone type 1 receptor” (priority 2001, published 2004), this text covers binding for one molecule.

The chains behind the UniProt entries cited, without tags or fusion partners. Where a name states a change or a piece, a line headed by the entry shows the natural chain unless it says otherwise.
UniProt Q8MJ89: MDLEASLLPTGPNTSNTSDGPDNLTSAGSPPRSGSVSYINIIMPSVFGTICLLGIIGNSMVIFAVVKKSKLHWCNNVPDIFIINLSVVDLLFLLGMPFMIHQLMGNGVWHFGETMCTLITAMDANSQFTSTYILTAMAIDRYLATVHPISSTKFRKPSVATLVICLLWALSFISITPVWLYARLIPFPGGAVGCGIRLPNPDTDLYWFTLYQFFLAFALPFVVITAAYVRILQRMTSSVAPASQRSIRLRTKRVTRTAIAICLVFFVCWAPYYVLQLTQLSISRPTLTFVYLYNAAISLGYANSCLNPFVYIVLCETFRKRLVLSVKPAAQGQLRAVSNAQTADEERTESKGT
UniProt P20382: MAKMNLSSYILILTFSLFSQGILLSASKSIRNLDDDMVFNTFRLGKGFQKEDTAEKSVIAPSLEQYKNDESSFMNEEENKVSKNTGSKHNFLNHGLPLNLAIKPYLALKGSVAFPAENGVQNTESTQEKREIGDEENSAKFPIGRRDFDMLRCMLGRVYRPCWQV

Results are given in words; binding and its absence hold for the method and conditions named. Some entries that bind do so weakly or less than the wild type.

The assay has as its target rhesus monkey MCH-1R (melanin-concentrating hormone type 1 receptor) (rhesus monkey) (UniProt Q8MJ89). The assay is described as follows: radioligand binding, 100 pM, on adherent transfected HEK293T cells.

DFDMLRCMLGRVYRPCWQV (peptide, UniProt P20382 147-165, looked up, 125I radiolabel (position not given)) [[^125I]-MCH]: the binding entry is reported as “binds”.
